No constants are given. Whether binding was seen depends on the method and setting. Some results given as binding are weak or reduced against the parent protein; the word gives no strength.
Legend:
Assay in all cases: two-hybrid; mammalian two-hybrid; bait fused to the Gal4 DNA-binding domain (BIND), prey to the VP16 transcriptional activation domain (ACT); luciferase reporter; cultured mammalian cells, 37°C; positive from 3 times the background activity (level 1), the selected set is level 2 (>=5 to <10 times) and level 3 (>=10 times)
[1] = biological target: PH0860, hypothetical protein (Pyrococcus horikoshii OT3) (UniProt O58590)
[2] = biological target: PH1191, hypothetical protein (Pyrococcus horikoshii OT3) (UniProt O58905)
[3] = biological target: PH1126, hypothetical protein (Pyrococcus horikoshii OT3) (UniProt O58853)
[4] = biological target: PH0655, threonine-3-dehydrogenase (Pyrococcus horikoshii OT3) (UniProt O58389)
[5] = biological target: PH1850, hypothetical protein (Pyrococcus horikoshii OT3) (UniProt O59506)
[6] = biological target: PH1931, hypothetical protein (Pyrococcus horikoshii OT3) (UniProt O59594)
[7] = biological target: T1, PH0229, indolepyruvate ferredoxin oxidoreductase subunit (Pyrococcus horikoshii OT3) (UniProt O57968)
T1 sequence: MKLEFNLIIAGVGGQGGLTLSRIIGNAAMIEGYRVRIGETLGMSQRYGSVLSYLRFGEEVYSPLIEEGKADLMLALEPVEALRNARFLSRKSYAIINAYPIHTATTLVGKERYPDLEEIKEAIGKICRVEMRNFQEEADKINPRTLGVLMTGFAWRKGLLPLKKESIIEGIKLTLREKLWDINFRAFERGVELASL

[8] = biological target: T2, PH0764, indolepyruvate ferredoxin oxidoreductase subunit (Pyrococcus horikoshii OT3) (UniProt O58496)
T2 sequence: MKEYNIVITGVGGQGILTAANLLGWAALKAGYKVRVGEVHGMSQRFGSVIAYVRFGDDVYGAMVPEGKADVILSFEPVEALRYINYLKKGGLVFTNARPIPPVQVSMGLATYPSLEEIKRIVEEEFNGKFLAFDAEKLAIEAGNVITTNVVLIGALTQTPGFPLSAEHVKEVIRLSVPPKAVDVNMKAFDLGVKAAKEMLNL

[9] = biological target: T3, PH0245, 20S proteasome subunit (Pyrococcus horikoshii OT3) (UniProt O57983)
T3 sequence: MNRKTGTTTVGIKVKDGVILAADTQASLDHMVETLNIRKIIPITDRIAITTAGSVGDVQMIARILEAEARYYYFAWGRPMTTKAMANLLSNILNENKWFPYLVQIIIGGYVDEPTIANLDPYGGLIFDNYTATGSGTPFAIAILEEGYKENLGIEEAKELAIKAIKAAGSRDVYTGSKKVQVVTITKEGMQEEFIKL

[10] = biological target: T4, PH0490, chemotaxis protein CheD (Pyrococcus horikoshii OT3) (UniProt O58226)
T4 sequence: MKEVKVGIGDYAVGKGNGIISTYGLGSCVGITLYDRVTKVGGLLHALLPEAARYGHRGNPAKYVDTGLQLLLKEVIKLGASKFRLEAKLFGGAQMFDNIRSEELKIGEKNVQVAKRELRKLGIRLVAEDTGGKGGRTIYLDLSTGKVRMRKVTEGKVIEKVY

[11] = biological target: T5, PH1983, AtpH, archaeal or vacuolar-type H^+-ATPase subunit H (Pyrococcus horikoshii OT3) (UniProt O57720)
T5 sequence: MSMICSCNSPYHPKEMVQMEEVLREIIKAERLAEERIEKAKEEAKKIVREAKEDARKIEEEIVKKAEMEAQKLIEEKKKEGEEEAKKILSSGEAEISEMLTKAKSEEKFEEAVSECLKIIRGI

B1: PH0860, hypothetical protein (protein, UniProt O58590 1-221)
chain: MERLEDLFEKSKFGELILFEYNSTTPLLFIVYPLIKWAREKGYPLVIFDIFDSLTIYTKQAEMLGIKDKLYEGANIVKIGGRMNLGNIILKISIIEYGPFEKTLEDTLEKAYGERENVISIVLGTEKIFSFYPFRDQFMFSNFLALKTGDRRRKAFYFVNVDLLEKISPPMGPLLEEEFTTVVKLTKEDNKIKMKVIKSLNPELDGMELKVNAHTLIASNR
binding [1]: binds

B2: PH1191, hypothetical protein (protein, UniProt O58905 1-160)
chain: MHAHRSTPSFSKVIFRLFTITTLIFLTYFGYSTFAEHDPIKERLYELGYPDQGFIFTNSTIKWADGHLTIVQGTYIEDYPVTAEQAYEIARQYLASYNKKLEKYNYKLYPDKETLTEKEKDGQRYWVFELKLKTGNSDFFAGFIWVNRKTGTVSVKGLLG
binding [2]: binds

B3: PH1126, hypothetical protein (protein, UniProt O58853 1-207)
chain: MIPVKFKGATFGRLVKLEFEILRLGELKIDDISEFNTKDIKLEIRATSSGIKLIGVWEGDISEVGEAIKRALDESMKLRERLLRKMRNKVERIRKTLTEMGFSEESIGYGDAIRFTKRIGEYEVAIVVSSRDDIVRVEVYGGNKKLLAPELEAFFESVDIEELEIYDVDEDGREERVVINLELPKTDEKPEKRIIEAVKVLENILMA
binding [3]: binds

B4: PH0655, threonine-3-dehydrogenase (protein, UniProt O58389 1-348)
chain: MSEKMVAIMKTKPGYGAELVEVDVPKPGPGEVLIKVLATSICGTDLHIYEWNEWAQSRIKPPQIMGHEVAGEVVEIGPGVEGIEVGDYVSVETHIVCGKCYACRRGQYHVCQNTKIFGVDTDGVFAEYAVVPAQNIWKNPKSIPPEYATLQEPLGNAVDTVLAGPISGKSVLITGAGPLGLLGIAVAKASGAYPVIVSEPSDFRRELAKKVGADYVINPFEEDVVKEVMDITDGNGVDVFLEFSGAPKALEQGLQAVTPAGRVSLLGLYPGKVTIDFNNLIIFKALTIYGITGRHLWETWYTVSRLLQSGKLNLDPIITHKYKGFDKYEEAFELMRAGKTGKVVFMLK
binding [4]: binds

B5: PH1850, hypothetical protein (protein, UniProt O59506 1-264)
chain: MYQEFFTFIPVDIEELDKAFGGGLIRGATISIMYDAFSLGWALGFEMVKNLIRRNSFGVIHNYNLPTIKLISRASFVGLNIQELAKRKEIMILDVFGSKYDVPPYADYVLQVPNPTPETLNPKIESVYENKIFQVAGDRRIVKLVYTLDGVATMFGEEVAIKLLNGELAWLAKMYGKRNVMTILLLNVDMVSKKFIAWTSGVSDIVITFQSLTEEREGELVERMTVIKSLNPEFEPTSYEFRVTATGTGSHALDFRKIENKRDK
binding [5]: binds

B6: PH1931, hypothetical protein (protein, UniProt O59594 1-101)
chain: MMARGIRLLVLDVLKPHQPLVTELALGLSELEGVEGVNITLVEIDKETENIKVTIVGDNLNYDEIVRTIEEFGGVVHSIDMVAAGRKIIEEEETPQDKLEE
binding [6]: binds

B7: PH1138, indolepyruvate ferredoxin oxidoreductase subunit (protein, UniProt O58865 1-618)
chain: MGGIKVKRLLMGNEAIAYGALEAGVSFATGYPGTPSTEVIETIARLKPEVFAEWAPNEKVALEEAAGASYAGIRSLVTMKCVGLNVAADPLMSLAYSGVEGGLVVLVADDPGPHTSQTEQDDRYYGKISLLPVLEPYDPQEAHDLIKYAYELSEKYKVPIIFRTTTRVNHTTADVEVGEFKDLNRIPKFKKDIERYVRASMEGNRKRHKWLNETLKKIEEEFNNLDYNWIEGDGKIGIIVEGAPYNYVKEVLPSIEGDFKILKLSTPHPLPRKIVINFLKSVEKALVIEEGAPFLEEEIKVVAYEEGLRVPIYGKRTGYLPLEGELTPRLVKNAILKLLGKEGEEVSLPKEVEEAERLAPKRPPVMCPGCPHRGSYRALLDALRELGYGKFDIPIHGDIGCYALSLLPPLEAIWTEFVMGASISLANGQSVVMGKKIVATIGDSTFFHNGIQPLIDAVYKDLDVLVIILDNRTTAMTGHQPHPGTGGSETGRKFREIDIEALVKGIGVKYVKTVDPYDLKATKEAIKEAMKVKGPAVIIARRECVIPVIRRGETREPPIVIEDKCTGCKACILLSGCPALIYDPETRKVRIDELICTGCGICNQLCPFDAIKFREELQ
binding [7]: binds | binding [8]: binds

B8: PH1553, 20S proteasome subunit (protein, UniProt O59219 1-260)
chain: MAFVPPQAGYDRAITVFSPDGRLFQVNYAREAVKRGATAVGVKCNEGVVLAVEKRITSRLIEPESYEKIFQIDDHIAAASSGIIADARVLVNRARLEAQIHRLTYGEPAPLAVIVKKICDLKQMHTQYGGVRPFGAALLMAGVNEKPELYETDPSGAYFAWKAVAIGSGRNTAMAIFEEKYKDDMSLEEAIKLAIFALAKTMEKPSAENIEVAIITVKDKKFRKLSREEIEKYLNEVMKEVEEEEVKEKEEDYSELDSHY
binding [9]: binds

B9: PH0487, chemotaxis protein CheC (protein, UniProt O58223 1-212)
chain: MDIVDEKWEEYLKNLDEMSKSALLETFNIGASHAATALSEMTGKEVNISVPDLKIIAIKNVPEVVGEDVKVAVYIELGKDFSSHAFFIADYEDALRMFDIIMGNPLGTTKEMDEMVKSSFMEVGNILISAFANALSEFLGITIEQTPPSLAIDFLPAILDFALADIGKYCDYTIILQTNIKISDVKFEEHFLLFPKPEDMKKILEKLLGGFA
binding [10]: binds

B10: PH1978, AtpE, archaeal or vacuolar-type H^+-ATPase subunit E (protein, UniProt O57724 1-198)
chain: MNGAELIIQEINKEAERKIEYILNEARQQAEKIKEEARRNAEAKAEWIIRRAKTQAELEKQRIIANARLEVRRKRLAIQEEIISSVLEEVKRRLETMSEDEYFESVKALLKEAIKELNEKKVRVMSNEKTLGLIASRIEEIKSELGDVSIELGETVDTMGGVIVETEDGRIRIDNTFEARMERFEGEIRSTIAKVLFG
binding [11]: binds

Source: paper PMC1414084
